This assay is described as follows: qHTS Assay for Lipid Storage Modulators in Drosophila S3 Cells.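 For cell number change: cells counted by Cell Tracker Red CMTPX staining in the red channel.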 Particulars: BODIPY lipid droplet fluorescence, 18-24 h; for cell number change: measured here: cell count max response, cells fed with added oleic acid. In short, it runs like this: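 Drosophila S3 cells loaded with oleic acid (400 uM, as added) and compounds at several concentrations; lipid droplets imaged by 488-nm laser-scanning cytometry, 500–530 nm intensity and object ratio to cell channel. Percent activity normalized to 20 uM Triacsin C.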
In general terms: In qHTS, concentration-response curves come from the screen itself.

The mark [1] stands for this setting: measured here: lipid fluorescence (Fed channel) AC50, cells fed with added oleic acid.
Setting [2] is: measured here: cell number channel AC50, cells fed with added oleic acid.

SMILES strings stand for the structures. Some of the results follow. Shown are side measurements of this screen, not its main read-out; they come without a call. Compounds called inactive in the main read-out are mostly missing here. Potencies come from curve fits of mixed quality, noted in brackets.

`O=C(Nc1ccc(S(=O)(=O)N2CCOCC2)cc1)c1ccccc1F`: the cell number change came to 6.32%. Further, the AC50 under setting [1] is 29.1 µM [falling, single point].

For the compound `CCOC(=O)C1=C(C)N=C2SC(CC)C(=O)N2C1c1cccc(F)c1` (stereo not drawn), the half-maximal activity concentration (AC50) under setting [1] was 0.326 µM [rising, partial curve, poor fit].

Turning to `COc1ccc(Cl)cc1NC(=S)N1CC(C)OC(C)C1` (stereo not drawn), the cell number change worked out at 47%. Besides, under setting [2], the concentration at half-maximal activity (AC50) was 6.51 µM [rising, full curve].

As to `COc1cccc2c1CCc1c-2nc2ccccc2c1C(=O)O`, the cell number change is -10.8%. The AC50 under setting [1] was 29.1 µM [falling, single point].

As to `Cc1cc(C)n(-c2ccc(C(=O)OCC(=O)c3ccc(Br)s3)cc2)n1`, the cell number change was -12.7%.

As for `CCOC(=O)Cn1cnc2c(nnn2-c2ccc(F)cc2)c1=O`, the cell number change is -13.3%. Moreover, the AC50 under setting [1] is 0.651 µM [falling, single point].

In the case of `CC(C)(C)c1ccc(C(=O)Nc2cccc(C(=O)N3CCOCC3)c2)cc1`, the cell number change is -49%. Under setting [2], the AC50 was 29.1 µM [falling, single point]. Further, the half-maximal activity concentration (AC50) under setting [1] is 29.1 µM [falling, single point].

With `Cc1c(NS(=O)(=O)c2ccccc2F)c(=O)n(-c2ccccc2)n1C`, the cell number change came to 25.7%. In addition, the AC50 under setting [1] is 9.2 µM [rising, partial curve].

With `Cc1ccc(C2(C)NC(=O)N(Cc3c(C)noc3C)C2=O)cc1` (stereo not drawn), the cell number change came to 8.05%. Besides, the concentration at half-maximal activity (AC50) under setting [1] was 29.1 µM [rising, single point].

On to `CC(C)N1C[C@@]23C=C[C@@H](O2)C(C(=O)OCc2ccccc2)[C@H]3C1=O` (stereo partly drawn), for which the cell number change is -11.1%. Besides, the AC50 under setting [1] was 0.651 µM [falling, full curve, poor fit].

In the case of `Cc1ccc(N2CC(C(=O)N3CCC(C(=O)Nc4nnc(C(C)(C)C)s4)CC3)CC2=O)cc1` (stereo not drawn), the cell number change is 12%.

With `Cc1cc(C)n2nc(SCc3ncc(-c4ccccc4)o3)nc2n1`, the cell number change was determined as 41.3%. For the same compound, under setting [2], the AC50 was 7.31 µM [rising, partial curve]. Besides, the half-maximal activity concentration (AC50) under setting [1] was 0.58 µM [rising, single point].

In the case of `CCc1ccc(NC(=O)c2onc(C)c2Cl)cc1`, the cell number change is -26.7%. Also, the AC50 under setting [1] was 29.1 µM [falling, single point].

For `CC(C)[C@H](NC(=O)c1c(F)cccc1F)C(=O)OCC(=O)NC(=O)NC1CCCC1`, the cell number change is -33.7%. The AC50 under setting [1] was 6.51 µM [falling, single point].

`CC(C)(C)c1ccc(OC(=O)c2ccc3nsnc3c2)cc1`: under setting [1], the AC50 is 6.51 µM [rising, single point].

With `COc1ccc(C(=O)CSc2nc(C)cc(C)n2)cc1C`, the cell number change was -16.4%.

In the case of `CCCCCC(=O)Nc1nnn(CCC)n1`, the cell number change was -3.07%. Moreover, the half-maximal activity concentration (AC50) under setting [1] was 0.651 µM [falling, single point].

Turning to `COc1ccc(C(=O)n2cnnc2N)cc1`, the cell number change is -5.23%. The AC50 under setting [1] is 3.26 µM [falling, partial curve, poor fit].

In general, AC50 refers to the concentration at which the activity in the assay is half-maximal. Read a low AC50 as activity at low concentration.

For the origin of these results see PubChem BioAssay AID2685 (National Center for Advancing Translational Sciences (NCATS), 2010).
